Values from PubChem BioAssay AID504744 (Drosophila RNAi Screening Center, 2011)

Purpose: 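Uncover factors, including feedback loops, that control dAkt activation in fly cells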 (primary screen)
Cells: Drosophila Kc167 cells
Knock-down reagent: long dsRNA against Drosophila genes, 250 ng dsRNA per well of a 384-well plate
Time to read-out: 3 days of knock-down, then overnight serum-free starvation before stimulation
Treatment: bovine insulin at 387 nM for 10 minutes after 12 h without serum
Measurement: 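Per-well phospho-dAkt level from an in-cell fluorescent antibody stain, divided by a DNA-dye signal; log2 residuals turned into z-scores that take cell number into account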
Rule for the call: 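Under insulin, a gene counts as a hit if the average z-score of two replicates lies above 2.5 or below -2.5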
The deposit covers about 23,000 reagents; this is a random part of those that have a named target and a result. Over the whole deposit, 98 (0.43%) were called active. 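Only hit calls are given; the phospho-dAkt signals, z-scores and hit direction were not deposited.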 The numbers tell different reagents against one gene apart. Names joined by + are all predicted targets of the reagent. No sequences are given here.

| gene | reagent | call |
| --- | --- | --- |
| CG10232 | 1 | inactive |
| AstC (Allatostatin C) | 1 | inactive |
| ens (ensconsin) | 1 | inactive |
| Clic (Chloride intracellular channel) | 1 | inactive |
| Elys | 1 | inactive |
| CG1835 | 1 | inactive |
| CG1840 | 1 | inactive |
| CR11235 (pseudo) | 1 | inactive |
| Acbp1 (Acyl-CoA binding protein 1) | 1 | inactive |
| flz (filzig) | 1 | inactive |
| CG5267 | 1 | inactive |
| DIP2 (DISCO Interacting Protein 2) | 1 | inactive |
| Drice (Death related ICE-like caspase) | 1 | inactive |
| CG30395 | 1 | inactive |
| Rdh1 (Retinol dehydrogenase 1) | 1 | inactive |
| Klc (Kinesin light chain) | 1 | inactive |
| CG15128 | 1 | inactive |
| CG42818 + Ca-Ma2d | 1 | inactive |
| CG12481 | 1 | inactive |
| CG11986 | 1 | inactive |
| Exn (Ephexin) | 1 | inactive |
| Exn (Ephexin) | 2 | inactive |
| CG14333 (retired record) | 1 | inactive |
| CG14333 (retired record) | 2 | inactive |
| CG10254 | 1 | inactive |
| CG10341 | 1 | inactive |
| CG34459 | 1 | inactive |
| CG4907 | 1 | inactive |
| CG17985 | 1 | inactive |
| polybromo | 1 | inactive |
| TwdlD (TweedleD) | 1 | inactive |
| Snx27 (Sorting nexin 27) | 1 | inactive |
| Snx27 (Sorting nexin 27) | 2 | inactive |
| Snx27 (Sorting nexin 27) | 3 | inactive |
| CG34338 | 1 | inactive |
| Cpr60D (Cuticular protein 60D) | 1 | inactive |
| Rab9D + Rab9Fa + Rab9E | 1 | inactive |
| CG30470 (retired record) | 1 | inactive |
| CG30470 (retired record) | 2 | inactive |
| CG30470 (retired record) | 3 | inactive |
| CG30470 (retired record) | 4 | inactive |
| CG2608 | 1 | inactive |
| Mat1 (Menage a trois 1) | 1 | inactive |
| CG12985 | 1 | inactive |
| Syn1 + CG7370 | 1 | inactive |
| CG9951 | 1 | inactive |
| CG6766 | 1 | inactive |
| Arf4 (ADP ribosylation factor 4) | 1 | inactive |
| Hnf4 (Hepatocyte nuclear factor 4) | 1 | inactive |
| Hnf4 (Hepatocyte nuclear factor 4) | 2 | inactive |
| Nt5b (5' nucleotidase B) | 1 | inactive |
| Nt5b (5' nucleotidase B) | 2 | inactive |
| Nt5b (5' nucleotidase B) | 3 | inactive |
| Nt5b (5' nucleotidase B) | 4 | inactive |
| Grl65a (Gustatory receptor-like 65a) | 1 | inactive |
| Cpr47Ed (Cuticular protein 47Ed) | 1 | inactive |
| Fancm (Fanconi anemia group M helicase) | 1 | inactive |
| CG31759 | 1 | inactive |
| fray (frayed) | 1 | inactive |
| Mst85C | 1 | inactive |
| cib (ciboulot) | 1 | inactive |
| l(2)k01209 (lethal (2) k01209) | 1 | inactive |
| CG32069 + Blos2 | 1 | inactive |
| CG10185 | 1 | inactive |
| Naa80 (N(alpha)-acetyltransferase 80) | 1 | inactive |
| CG14186 | 1 | inactive |
| TwdlM (TweedleM) | 1 | inactive |
| CysRS-m (Cysteinyl-tRNA synthetase, mitochondrial) | 1 | inactive |
| Cpsf160 (Cleavage and polyadenylation specificity factor 160) | 1 | inactive |
| Inos (myo-inositol-1-phosphate synthase) | 1 | inactive |
| CG12299 | 1 | inactive |
| CG3021 | 1 | inactive |
| CG3021 | 2 | inactive |
| Ebp (Ejaculatory bulb protein) | 1 | inactive |
| axed (axundead) | 1 | inactive |
| axed (axundead) | 2 | inactive |
| TotB (Turandot B) | 1 | inactive |
| TyrRS-m (Tyrosyl-tRNA synthetase, mitochondrial) | 1 | inactive |
| eIF2gamma (eukaryotic translation initiation factor 2 subunit gamma) | 1 | inactive |
| eIF2gamma (eukaryotic translation initiation factor 2 subunit gamma) | 2 | inactive |
| fidipidine | 1 | inactive |
| CG8135 + BBIP1 | 1 | inactive |
| CG8135 + BBIP1 | 2 | inactive |
| CG13531 | 1 | inactive |
| Mapmodulin | 1 | inactive |
| CG12860 | 1 | inactive |
| CG2712 | 1 | inactive |
| Obp56b (Odorant-binding protein 56b) | 1 | inactive |
| Prp16 (pre-mRNA processing factor 16) | 1 | inactive |
| Prp16 (pre-mRNA processing factor 16) | 2 | inactive |
| Tektin-C (Tektin C) | 1 | inactive |
| Tim17b2 (Translocase inner membrane 17) | 1 | inactive |
| CG14408 | 1 | inactive |
| CG9406 | 1 | inactive |
| CG13857 | 1 | inactive |
| CG16739 | 1 | inactive |
| CG6071 | 1 | inactive |
| Snmp2 (Sensory neuron membrane protein 2) | 1 | inactive |
| Snmp2 (Sensory neuron membrane protein 2) | 2 | inactive |
| CG32645 | 1 | inactive |
| CG32645 | 2 | inactive |
| snk (snake) | 1 | inactive |
| Hs6st (Heparan sulfate 6-O-sulfotransferase) | 1 | inactive |
| Hs6st (Heparan sulfate 6-O-sulfotransferase) | 2 | inactive |
| Hs6st (Heparan sulfate 6-O-sulfotransferase) | 3 | inactive |
| Hs6st (Heparan sulfate 6-O-sulfotransferase) | 4 | inactive |
| CG12158 | 1 | inactive |
| Lcp65Ab2 + Lcp65Ab1 | 1 | inactive |
| Lcp65Ab2 + Lcp65Ab1 | 2 | inactive |
| p38b (p38b MAP kinase) | 1 | inactive |
| Pgant8 (Polypeptide N-Acetylgalactosaminyltransferase 8) | 1 | inactive |
| CG8768 | 1 | inactive |
| PolD1 (DNA polymerase delta subunit 1) | 1 | inactive |
| zye | 1 | inactive |
| scaf (scarface) | 1 | inactive |
| SIFaR (SIFamide receptor) | 1 | inactive |
| SIFaR (SIFamide receptor) | 2 | inactive |
| dbf (doublefault) | 1 | inactive |
| NLaz (Neural Lazarillo) | 1 | inactive |
| eIF2Bepsilon (eukaryotic translation initiation factor 2B subunit epsilon) | 1 | inactive |
| CG33012 | 1 | inactive |
| CG33012 | 2 | inactive |
| CG32163 | 1 | inactive |
| wal (walrus) | 1 | inactive |
| Cap-H2 (Chromosome associated protein H2) | 1 | inactive |
| CG12107 | 1 | inactive |
| CG42780 | 1 | inactive |
| sas (stranded at second) | 1 | inactive |
| Grp170 (Grp170 co-chaperone) | 1 | inactive |
| CG12725 | 1 | inactive |
| CG6479 | 1 | inactive |
| CG5535 | 1 | inactive |
| lncRNA:CR32553 (long non-coding RNA:CR32553) | 1 | inactive |
| gammaSnap1 (gamma Soluble NSF attachment protein 1) | 1 | inactive |
| hng3 (hinge3) | 1 | inactive |
| Ir25a (Ionotropic receptor 25a) | 1 | inactive |
| Acox57D-p (acyl-Coenzyme A oxidase at 57D proximal) | 1 | inactive |
| Tmep (Transmembrane endosomal protein) | 1 | inactive |
| nsr (novel spermatogenesis regulator) | 1 | inactive |
| nsr (novel spermatogenesis regulator) | 2 | inactive |
| nocte (no circadian temperature entrainment) | 1 | inactive |
| CG15456 | 1 | inactive |
| CG13215 | 1 | inactive |
| tws (twins) | 1 | inactive |
| tws (twins) | 2 | inactive |
| orb (oo18 RNA-binding protein) | 1 | inactive |
| CG16837 | 1 | inactive |
| CCT6 (Chaperonin containing TCP1 subunit 6) | 1 | inactive |
| CG13725 | 1 | inactive |
| CG6428 | 1 | inactive |
| CG15200 | 1 | inactive |
| tut (tumorous testis) | 1 | inactive |
| ppk11 (pickpocket 11) | 1 | inactive |
| CG13634 | 1 | inactive |
| prtp (pretaporter) | 1 | inactive |
| prtp (pretaporter) | 2 | inactive |
| CG14983 | 1 | inactive |

18 successive reagents already listed, for reference:
| gene | reagent | call |
| --- | --- | --- |
| Snmp2 (Sensory neuron membrane protein 2) | 1 | inactive |
| Snmp2 (Sensory neuron membrane protein 2) | 2 | inactive |
| CG32645 | 1 | inactive |
| CG32645 | 2 | inactive |
| snk (snake) | 1 | inactive |
| Hs6st (Heparan sulfate 6-O-sulfotransferase) | 1 | inactive |
| Hs6st (Heparan sulfate 6-O-sulfotransferase) | 2 | inactive |
| Hs6st (Heparan sulfate 6-O-sulfotransferase) | 3 | inactive |
| Hs6st (Heparan sulfate 6-O-sulfotransferase) | 4 | inactive |
| CG12158 | 1 | inactive |
| Lcp65Ab2 + Lcp65Ab1 | 1 | inactive |
| Lcp65Ab2 + Lcp65Ab1 | 2 | inactive |
| p38b (p38b MAP kinase) | 1 | inactive |
| Pgant8 (Polypeptide N-Acetylgalactosaminyltransferase 8) | 1 | inactive |
| CG8768 | 1 | inactive |
| PolD1 (DNA polymerase delta subunit 1) | 1 | inactive |
| zye | 1 | inactive |
| scaf (scarface) | 1 | inactive |
